Data: US20210086176A1, “Analyte Detection method” (The Board of Trustees of the Leland Stanford Junior …, priority 2017, published 2021)

Experiment: ondansetron in DBS versus plasma, healthy adults and newborn babies
Type: in vivo, human

Q: Which “slope of trend line, DBS versus plasma ondansetron concentration” value (babies) does the source give for `Cc1nccn1CC1CCc2c(c3ccccc3n2C)C1=O` (centres unmarked) [ondansetron] here?
A: 1.47

Q: What about the “slope of trend line, DBS versus plasma ondansetron concentration” value (healthy adults) of the same compound?
A: 0.71
